In this test the target is T1, Forkhead box protein C1 (human (endogenous in RASFs)) (UniProt Q12948).
T1 sequence: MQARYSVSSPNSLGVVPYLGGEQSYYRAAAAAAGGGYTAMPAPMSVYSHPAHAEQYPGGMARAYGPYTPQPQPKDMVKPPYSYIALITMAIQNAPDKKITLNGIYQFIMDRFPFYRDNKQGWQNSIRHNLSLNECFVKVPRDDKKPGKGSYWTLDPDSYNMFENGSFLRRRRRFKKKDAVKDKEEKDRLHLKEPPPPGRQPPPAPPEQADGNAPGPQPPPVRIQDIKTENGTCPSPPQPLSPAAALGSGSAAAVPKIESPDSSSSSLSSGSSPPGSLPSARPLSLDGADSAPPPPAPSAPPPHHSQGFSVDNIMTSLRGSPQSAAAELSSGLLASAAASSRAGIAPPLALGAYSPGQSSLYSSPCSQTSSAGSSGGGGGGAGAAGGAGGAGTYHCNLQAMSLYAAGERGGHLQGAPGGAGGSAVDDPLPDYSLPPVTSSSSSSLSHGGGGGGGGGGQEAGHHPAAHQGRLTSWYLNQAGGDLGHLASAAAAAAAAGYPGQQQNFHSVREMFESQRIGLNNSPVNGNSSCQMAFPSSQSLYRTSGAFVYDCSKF
The experiment in a line: co-IP; RASFs lysed in RIPA at 4 °C; supernatant incubated with FoxC1 antibody (ab5079), β-catenin antibody (L87A12) or normal IgG with protein A/G magnetic beads at 4 °C overnight; immunoblot. In general terms: A western blot detects proteins with antibodies after separation by electrophoresis.

Sequences of proteins named here, by UniProt entry; tags and fusion partners are left off.
UniProt P35222: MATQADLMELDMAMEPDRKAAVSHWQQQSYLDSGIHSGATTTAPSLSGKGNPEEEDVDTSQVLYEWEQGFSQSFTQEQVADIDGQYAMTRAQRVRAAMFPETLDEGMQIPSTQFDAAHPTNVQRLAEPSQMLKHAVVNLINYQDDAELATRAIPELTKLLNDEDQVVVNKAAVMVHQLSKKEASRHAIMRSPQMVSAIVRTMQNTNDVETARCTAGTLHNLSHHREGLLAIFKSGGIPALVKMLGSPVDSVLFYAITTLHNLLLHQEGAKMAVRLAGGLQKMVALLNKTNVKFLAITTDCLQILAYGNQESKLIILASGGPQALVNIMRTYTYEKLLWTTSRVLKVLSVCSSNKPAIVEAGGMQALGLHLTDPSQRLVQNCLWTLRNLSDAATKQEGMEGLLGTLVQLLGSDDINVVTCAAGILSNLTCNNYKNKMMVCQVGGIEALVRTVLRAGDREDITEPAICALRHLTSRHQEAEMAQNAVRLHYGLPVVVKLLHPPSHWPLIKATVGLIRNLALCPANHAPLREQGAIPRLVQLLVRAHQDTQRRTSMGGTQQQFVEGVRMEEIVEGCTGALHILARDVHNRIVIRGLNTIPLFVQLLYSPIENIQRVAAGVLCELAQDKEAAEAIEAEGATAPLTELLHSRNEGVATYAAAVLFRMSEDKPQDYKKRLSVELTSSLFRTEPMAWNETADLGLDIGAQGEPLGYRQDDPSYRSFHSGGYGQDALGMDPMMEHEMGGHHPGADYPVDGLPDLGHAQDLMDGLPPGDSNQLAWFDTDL

Results are given in words; binding and its absence hold for the method and conditions named. Binding seen in cells or lysates may run through a third protein. Some results given as binding are weak or reduced against the parent protein; the word gives no strength.

Regarding β-catenin (from UniProt P35222 1-781), the binding entry is “binds”.

These data come from paper PMC7196314.
